Test results reported in PubChem BioAssay AID651744 (Broad Institute, 2012).
Out of some 5,600 compounds screened, about 3,100 (55%) were called active. The set was probably picked from earlier hits. The shares of active, inactive and inconclusive entries below differ from those in the screen.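 Rule for the calls: active = mean loss of cell viability signal at or above a set limit, and enough replicates individually reaching it; inconclusive = meets only the mean limit or only the replicate share; inactive = meets neither condition.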

Experiment: NIH/3T3 fibroblast cytotoxicity, confirmation, cytotoxicity control, cell-based, cherry-pick, single point, set 2 (AID 651744);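 note: 0% = median of neutral control wells and 100% = median of positive control wells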
Conditions: NIH/3T3 viability, CellTiter-Glo ATP luminescence, 90 h; at 24.9 µM; stronger effect = higher value

SMILES | inhibition
CCCNC(=O)[C@H]1[C@H](CO)[C@H]2Cn3c(ccc(C4=CCCCC4)c3=O)[C@H]2N1Cc1ccccc1F | inconclusive: 38.7%
O=C(c1cccc(F)c1)N1CCCCN2[C@@H](CO)[C@H](c3ccc(C#CC4(O)CCCC4)cc3)[C@@H]2C1 | inconclusive: 27.7%
Cc1noc(C)c1S(=O)(=O)N(C)C[C@@H]1OCCCC[C@@H](C)Oc2ccc(NC(=O)Nc3cccc4ccccc34)cc2C(=O)N([C@@H](C)CO)C[C@H]1C | inactive: -5.19%
C[C@H](CO)N1C[C@H](C)[C@H](CN(C)S(=O)(=O)c2ccccc2)OCCCC[C@H](C)Oc2ccc(NC(=O)Nc3ccc(F)cc3)cc2C1=O | inconclusive: 20.3%
CCCC#Cc1ccc2c(c1)O[C@H](CN(C)Cc1cccnc1)[C@H](C)CN([C@@H](C)CO)S2(=O)=O | inconclusive: 33.1%
C[C@@H]1CN([C@H](C)CO)C(=O)c2ccccc2-c2ccccc2CO[C@H]1CN(C)S(=O)(=O)c1cccs1 | inconclusive: 34.5%
C[C@@H]1CN([C@@H](C)CO)C(=O)c2cccc(N(C)C)c2O[C@@H]1CN(C)Cc1ccc(C(=O)Nc2ccccc2N)cc1 | active: 72.9%
Cc1ccc(S(=O)(=O)N(C)C[C@@H]2OCCCC[C@H](C)Oc3ccc(NC(=O)Cc4ccccc4)cc3C(=O)N([C@H](C)CO)C[C@@H]2C)cc1 | inconclusive: 46.9%
Cc1ccc(-c2ccc3c(c2)O[C@@H](CN(C)S(C)(=O)=O)[C@H](C)CN([C@H](C)CO)S3(=O)=O)cc1 | active: 72.1%
Cc1ccc(S(=O)(=O)N2CC[C@@H]3[C@H]2c2cc(C#Cc4ccccc4F)ccc2N[C@@H]3CO)cc1 | inconclusive: 21.6%
Cc1ccc(-c2ccc3c(c2)O[C@H](CN(C)C(=O)C2CCCCC2)[C@H](C)CN([C@@H](C)CO)S3(=O)=O)cc1 | active: 106%
Cc1noc(C)c1S(=O)(=O)Nc1ccc2c(c1)C(=O)N([C@H](C)CO)C[C@H](C)[C@H](CN(C)Cc1ccc(C(F)(F)F)cc1)OCCCC[C@@H](C)O2 | inconclusive: 8.36%
CN1[C@H](C(=O)Nc2ccccc2)[C@@H](CO)[C@@H]2Cn3c(ccc(-c4ccccc4)c3=O)[C@@H]21 | inconclusive: 17.7%
COCC(=O)N1[C@@H](C#N)[C@H](c2ccc(C#Cc3ccccc3F)cc2)[C@@H]1CO | inactive: 7.3%
C[C@@H]1CN([C@@H](C)CO)S(=O)(=O)c2ccc(C#CCC3CCCC3)cc2O[C@@H]1CN(C)C(=O)CC1CC1 | active: 107%
COc1ccccc1-c1ccc2c(c1)O[C@@H](CN(C)C(=O)c1ccncc1)[C@@H](C)CN([C@H](C)CO)S2(=O)=O | inconclusive: 8.19%
COc1ccc(-c2ccc([C@H]3[C@@H](CO)N(C(=O)CN(C)C)[C@H]3C#N)cc2)cc1 | inconclusive: 21.8%
C[C@@H]1CCCCO[C@@H](CN(C)C(=O)Nc2ccc(C(F)(F)F)cc2)[C@@H](C)CN([C@H](C)CO)C(=O)c2cc(NC(=O)Nc3ccc(C(F)(F)F)cc3)ccc2O1 | inconclusive: 27%
CN1c2ccc(-c3cccc(C#N)c3)cc2[C@@H]2[C@@H](CCN2S(=O)(=O)c2ccccc2)[C@H]1CO | active: 76.4%

SMILES | inhibition
C[C@H](CO)N1C[C@H](C)[C@@H](CN(C)Cc2ccc(Oc3ccccc3)cc2)Oc2ccc(NC(=O)c3ccncc3)cc2CC1=O | active: 106%
CCCC#Cc1ccc2c(c1)O[C@@H](CN(C)C(=O)CC1CC1)[C@H](C)CN([C@@H](C)CO)S2(=O)=O | active: 49.3%
C[C@@H]1CN([C@@H](C)CO)C(=O)Cc2cc(NC(=O)Nc3cccc4ccccc34)ccc2O[C@@H]1CN(C)Cc1ccc(-c2ccccc2)cc1 | inconclusive: 22.8%
C[C@@H]1CCCCO[C@H](CN(C)Cc2ccc(C(F)(F)F)cc2)[C@@H](C)CN([C@H](C)CO)C(=O)c2cc(N(C)C)ccc2O1 | inconclusive: 14.9%
O=C(C1CCOCC1)N1CC[C@@H]2[C@@H](CO)Nc3ccc(-c4ccc(F)cc4)cc3[C@@H]21 | inactive: 13.7%
C[C@@H]1CN([C@H](C)CO)C(=O)c2cc(NC(=O)Nc3cccc4ccccc34)ccc2O[C@H]1CN(C)Cc1ccc(C(F)(F)F)cc1 | inconclusive: 23.6%
O=C(Nc1cccc(Cl)c1)N[C@@H]1CC[C@@H](CCn2cc(Cc3ccccc3)nn2)O[C@@H]1CO | active: 32.9%
C[C@@H]1CN([C@@H](C)CO)C(=O)c2cc(NC(=O)Nc3cccc4ccccc34)ccc2O[C@@H](C)CCCCO[C@@H]1CN(C)Cc1ccc(C(F)(F)F)cc1 | inactive: 20%
C[C@H](CO)N1C[C@H](C)[C@@H](CN(C)CC2CC2)Oc2c(NC(=O)c3ccncc3)cccc2C1=O | inconclusive: 24%
C[C@H](CO)N1C[C@H](C)[C@@H](CN(C)Cc2ccc3c(c2)OCO3)Oc2ccc(N(C)C)cc2CC1=O | active: 31.3%
O=C(c1ccccc1F)N1CC[C@H]2[C@H](CO)Nc3ccc(C#Cc4ccccc4)cc3[C@H]21 | inconclusive: 21.4%
O=C(Nc1ccccc1)N1CCCCN2[C@H](CO)[C@H](c3ccc(-c4ccccc4)cc3)[C@@H]2C1 | inactive: 13.1%
Cc1ccc(-c2ccc([C@@H]3[C@@H](CO)N4CCCCN(C(=O)Nc5cccc(F)c5)C[C@@H]34)cc2)cc1 | active: 105%
CC(C)(C)[S@](=O)N1Cc2cc(C(=O)NCc3ccncc3)nc(-c3cccc(-c4ccc(C#N)cc4)c3)c2[C@@H]1CCO | inconclusive: 47.1%
CN1C(=O)c2cc(NC(=O)c3ccc(C(F)(F)F)cc3)ccc2OC[C@@H]2O[C@H](CC(=O)NC3Cc4ccccc4C3)CC[C@H]21 | inconclusive: 21.6%
COc1ccccc1NC(=O)N1CCCCN2[C@H](CO)[C@H](c3ccc(-c4cccc(C)c4)cc3)[C@@H]2C1 | inconclusive: 21.9%
C[C@@H]1CCCCO[C@H](CN(C)S(=O)(=O)c2ccc(F)cc2)[C@H](C)CN([C@H](C)CO)C(=O)c2cc(NC(=O)C3CCCCC3)ccc2O1 | inactive: 10.8%
O=C(Nc1cc(F)ccc1F)N1CCCCN2[C@H](CO)[C@@H](c3ccc(-c4cncnc4)cc3)[C@H]2C1 | inconclusive: 17.2%
Cc1ccc(S(=O)(=O)N(C)C[C@@H]2OCCCC[C@H](C)Oc3ccc(NC(=O)c4ccccc4)cc3C(=O)N([C@H](C)CO)C[C@@H]2C)cc1 | inconclusive: 64.7%

3 structures already listed, ordered by length of the SMILES, high to low:
SMILES | inhibition
C[C@@H]1CN([C@@H](C)CO)S(=O)(=O)c2ccc(C#CCC3CCCC3)cc2O[C@@H]1CN(C)C(=O)CC1CC1 | active: 107%
O=C(c1ccccc1F)N1CC[C@H]2[C@H](CO)Nc3ccc(C#Cc4ccccc4)cc3[C@H]21 | inconclusive: 21.4%
COCC(=O)N1[C@@H](C#N)[C@H](c2ccc(C#Cc3ccccc3F)cc2)[C@@H]1CO | inactive: 7.3%

Later entries:

SMILES | inhibition
O=C(Cc1ccncc1)N1CC[C@@H]2[C@H](CO)Nc3ccc(-c4ccccc4F)cc3[C@@H]21 | inconclusive: 20.1%
COc1ccccc1-c1ccc2c(c1)O[C@@H](CN(C)S(=O)(=O)c1ccc(F)cc1)[C@H](C)CN([C@@H](C)CO)S2(=O)=O | inconclusive: 23.9%
C[C@@H]1CN([C@H](C)CO)C(=O)c2cc(NS(=O)(=O)c3ccc(Cl)cc3)ccc2O[C@@H](C)CCCCO[C@@H]1CN(C)S(=O)(=O)c1ccc(Cl)cc1 | inconclusive: 18.4%
CN1c2ccc(-c3ccc(F)cc3)cc2[C@H]2[C@H](CCN2C(=O)c2ccncc2)[C@@H]1CO | inconclusive: 33.8%
COc1cccc(-c2cnc3c(c2)C(=O)N([C@H](C)CO)C[C@H](C)[C@H](CN(C)Cc2cccc(C)c2)O3)c1 | inconclusive: 29.5%
COc1cccc(-c2ccc([C@H]3[C@@H](C#N)N(C(=O)Cc4ccccc4)[C@@H]3CO)cc2)c1 | active: 42.9%
C/C=C/c1ccc2c(c1)O[C@H](CN(C)S(=O)(=O)c1ccccc1OC)[C@@H](C)CN([C@H](C)CO)S2(=O)=O | inconclusive: 20.9%
C/C=C/c1ccc([C@H]2[C@@H](CO)N3CCCCN(C(=O)C4CCCC4)C[C@@H]23)cc1 | inactive: 5.15%
C[C@@H]1CCCCO[C@H](CN(C)S(=O)(=O)c2ccc(F)cc2)[C@H](C)CN([C@H](C)CO)C(=O)c2cc(NS(=O)(=O)c3ccccc3)ccc2O1 | inactive: 7.19%
Cc1ccc(S(=O)(=O)N[C@H]2C=C[C@H](CC(=O)N3CCC(Cc4ccccc4)CC3)O[C@H]2CO)cc1 | inactive: 8.47%
O=C(Nc1cc(F)ccc1F)N1CCCCN2[C@@H](CO)[C@H](c3ccc(-c4cncnc4)cc3)[C@@H]2C1 | inactive: 11%
O=C(C[C@H]1CC[C@H]2[C@@H](COC[C@H](O)CN2Cc2cc(F)ccc2F)O1)N[C@@H]1CCN(Cc2ccccc2)C1 | inconclusive: 20.7%
COc1ccc(NC(=O)Nc2ccc3c(c2)C(=O)N([C@@H](C)CO)C[C@@H](C)[C@@H](CN(C)Cc2ccc(Cl)c(Cl)c2)OCCCC[C@@H](C)O3)cc1 | inactive: 4.81%
O=C(NCCCN1CCOCC1)[C@H]1N[C@H]2c3ccc(C4=CCCCC4)c(=O)n3C[C@H]2[C@@H]1CO | inactive: 0.261%
N#C[C@H]1[C@H](c2ccc(-c3ccccc3)cc2)[C@H](CO)N1C(=O)Cc1ccncc1 | inconclusive: 23.9%
CCCC#Cc1ccc2c(c1)O[C@H](CN(C)Cc1ccncc1)[C@H](C)CN([C@H](C)CO)S2(=O)=O | inconclusive: 33.9%
C[C@@H]1CN([C@@H](C)CO)C(=O)c2cc(/C=C/c3ccccc3)cnc2O[C@H]1CN(C)S(=O)(=O)c1ccccc1F | inconclusive: 22%
C[C@H]1CN([C@@H](C)CO)S(=O)(=O)c2ccc(-c3ccncc3)cc2O[C@@H]1CN(C)C(=O)c1cccc(F)c1 | inconclusive: 22.7%
CC(C)C#Cc1cnc2c(c1)C(=O)N([C@@H](C)CO)C[C@H](C)[C@H](CN(C)C(=O)Nc1ccc(F)cc1)O2 | inconclusive: 15.2%
